Source: PubChem BioAssay AID1508600 (Functional Genomics Laboratory (NCATS/FGL), 2020)
About 3,700 (7%) of roughly 53,000 sequences were called active.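 How the source made its calls: active means gene knockdowns whose robust z-score for IL-1 alpha signal is at least 2 or at most -2, so actives lie on both sides; inactive means the rest.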 This is one part of the list.

Experiment: Components of the Cytosolic LPS Sensing Pathway: Gene Identification via Genome-wide siRNA Screen;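 further: robust z of the log signal after scaling to non-targeting control siRNA wells of the plate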
Details: RAW264.7 macrophages, IL-1a HTRF, actives lie on both sides, screened at 100 nM (by protocol), cells primed 5 h with Pam3CSK4 first
Procedure, shortened: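 RAW264.7; siRNA 100 nM final, RNAiMAX, 48h 37 degrees C; Pam3CSK4 5 h; LipidA + TransIT-TKO 24 h; IL-1a HTRF; CellTiter-Glo viability; robust z vs negative-control median.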

| Sequence | z-score |
| --- | --- |
| CCCAUUCAACUUUAGGCCCTT against Hdac7 | inactive: 0.0173 |
| GCUUCACAAGCAGUGUACUTT against Slc37a1 | inactive: -0.361 |
| GGAGACCUAGAUGCACUGATT against Arhgdig | inactive: -0.644 |
| GCAGAUGUUGCGUUUCCUGTT against Ggact | inactive: 0.0238 |
| GGCUUGGAUCUUGAGCAGATT against Magea6 | inactive: 0.819 |
| CCCUAGCGGAAAUUGUCAATT against Nono | inactive: 0.328 |
| GGCUCUGGAUUACAUAGCCTT against Actn2 | inactive: 0.0268 |
| GCAGACUUGGGUGUCUCUUTT against Fam167b | inactive: -0.174 |
| CCACGUUACAACAUCACCUTT against Hdac11 | inactive: -1.96 |
| GGGAUGGUUCCAUUACUUUTT against Rhcg | inactive: 0.934 |
| CCACCGACUUCUUUUACCCTT against Sephs2 | inactive: -0.165 |
| GGGUAGGUUGUGUUUGCAUTT against Synm | inactive: -0.846 |
| CCCUUAUUGCUAGACCUAGTT against Map3k11 | inactive: -1.13 |
| GCCCGAAGUCCAUGAUAUUTT against Ppm1a | inactive: 0.785 |
| CGAGACACGUAGUGAAAGATT against Chrna5 | inactive: 0.993 |
| GGUGCUAAUCAUCAUCAUGTT against Draxin | inactive: 0.547 |
| GGCUGACUUAUUUCAUUAATT against Dexi | inactive: 0.101 |
| GGUUUUGUCCAGAAGAAUATT against Kl | inactive: -0.574 |
| GCCUUGUGACAGCAUUAGUTT against Slc6a13 | inactive: -0.0361 |
| GAAAUCGGCUCAGACAUUUTT against Ssbp2 | inactive: -0.392 |
| GCUACACACGAUUUCAUUCTT against Dolpp1 | inactive: 0.549 |
| GGUCCUGUGAGUCAUUUGATT against Mrps34 | inactive: -0.191 |
| GGUAACUCAAUUUUGUGUUTT against Gcsam | inactive: 0.859 |
| GGUUGUGAAUGUAAGUGAGTT against Entpd1 | inactive: -0.787 |
| GGGCCUAGUAACUAUCAAGTT against Zfp641 | inactive: 1.4 |
| GCAUCAAACACUAGGGCAATT against Gpr33 | inactive: 0.699 |
| CCGUCGUUUUGGCCAGUAATT against Tex101 | inactive: 0.422 |
| GGUAGAAGAUGAUUACAUCTT against Spock2 | inactive: 0.408 |
| GCAUACCGGUGUGUCAGUGTT against Lamp1 | inactive: -0.0328 |

As entered above.
z-score, GGGCCUAGUAACUAUCAAGTT against Zfp641 is entered as inactive: 1.4
z-score, GGCUUGGAUCUUGAGCAGATT against Magea6 is entered as inactive: 0.819
